# Data as given in US11702428B2, “Chemical compounds as inhibitors of interleukin-1 activity” (Genentech, Inc., priority 2017, dated 2023).
# Some of these results come from one statement about several compounds together.
# System: IL-1β
# Test: LPS/ATP challenge model in C57BL/6 mice, IL-1β in peritoneal lavage
# Assay type: in vivo
# Details: 3.5 hours post dose
# Procedure: The purpose of this study was to determine the effects of Compounds 1 and 2 treatment on cytokine production after LPS/ATP injection in female C57BL/6 mice.
# On Day −1 mice were weighed and assigned to groups per Table 2 (see below) in a balanced manner to achieve similar average weight across the groups at the start of the study.
# All mice received a single dose of treatment or vehicle, at hour minus 1.
# At hour 0, all mice received 1 μg of lipopolysaccharide, ultra pure (LPS, InvivoGen, San Diego, Calif.) in 0.5 ml PBS, intraperitoneally.
# At hour 2 (two hours after LPS injection), all mice were injected intraperitoneally with 0.5 ml of 80 mM ATP disodium salt (Sigma, pH adjusted to 7.2 before injection).
# At hour 2.5 (30 minutes after ATP injection and 3.5 hours after compound dosing), blood from all mice was collected via retro-orbital bleeding into K2 EDTA tubes and plasma was prepared and stored at […]. Samples were shipped to the customer or vendor of customers choosing within 7 days of completing the study. […]
# Mouse IL-1β and TNFα concentrations in peritoneal lavage samples were determined using Becton Dickinson (Franklin Lakes, N.J.) CBA analysis kit, according to manufacturer's protocol. […]
smiles,measurement,setting,value
"CS(=O)(=O)NC(=O)Nc1c2c(cc3c1CCC3)CCC2 [Compound 2, N-((1,2,3,5,6,7-hexahydro-s-indacen-4-yl)carbamoyl)methanesulfonamide]",% Decrease of IL-1β vs. Vehicle,"single oral dose 1 mg/kg, 1 mg/kg",> 98%
same,% Decrease of IL-1β vs. Vehicle,"single oral dose 2.5 mg/kg, 2.5 mg/kg",> 98%
